From PMC12040169 (PLOS Biology, 2025)
The other results are listed elsewhere or left out.

test system: T1, CTL2-GFP (C. trachomatis L2/434/Bu, GFP-expressing); parameters: species or system HeLa; Intracellular C. trachomatis growth in HeLa cells, bulk GFP fluorescence relative to DMSO; conditions: bulk GFP, single well; 28.5 h, 10 µM; inhibitor
T1 construct: L2/434/Bu, GFP-expressing

| SMILES | % of control remaining |
| --- | --- |
| CN(C(=O)c1ccccn1)C1CCN(c2ncnc3ccccc23)CC1 [CBK305346] | 98.859% |
| c1cc(CSc2nnc(-c3ccncc3)o2)ccn1 [CBK270235] | 150.143% |
| CC(=O)c1cccc(NC(=O)/C(=C\c2cccnc2)NC(=O)c2ccc(C)cc2)c1 [CBK262456] | 110.58% |
| CC(Cc1nc(-c2nccn2C)cs1)n1cc(Cl)cn1 (centres unmarked) [CBK304114] | 15.3385% |
| Cc1ccc(Cl)cc1N1CCN(C(=O)COc2ccc(S(=O)(=O)Nc3ccc(F)cc3)cc2)CC1 [CBK268229] | 127.464% |
| Cc1ccccc1N1CCN(Cc2cccc(C(=O)O)c2)CC1 [CBK286890] | 153.472% |
| CN(C)c1ccc(Nc2cc(-c3ccco3)ncn2)cc1 [CBK090946] | 135.988% |
| CN(C)CC1CN(C(=O)Cc2ccccc2F)Cc2ccccc2O1 (centres unmarked) [CBK285327] | 155.83% |
| Cc1csc(Sc2nccc(C(F)(F)F)n2)n1 [CBK093770] | 93.1738% |
| CC1CN(S(=O)(=O)C(C)C)CCC1NCc1ccncc1 (centres unmarked) [CBK304870] | 92.736% |
| Cc1ccc(S(=O)(=O)N2CCN(CCCc3ccccc3)CC2)cc1 [CBK263453] | 115.872% |
| CN(C)CC(=O)N1c2ccccc2CCc2ccc(NC(=O)c3ccccc3)cc21 [CBK261289C] | 118.539% |
| O=C1CCC(C(=O)N2CCCC(c3cc4ccccc4cn3)C2)CC1 (centres unmarked) [CBK284989] | 107.262% |
| Cc1sc2nc(SCC(=O)c3c[nH]c4ccccc34)nc(O)c2c1C [CBK264068] | 130.841% |
| Cc1ccc(Sc2nccn3c(=O)[nH]nc23)c(C)c1 [CBK288055] | 124.52% |
| CC(=O)Nc1cccc(NC(=O)CN(C)S(=O)(=O)c2ccc(F)cc2)c1 [CBK269951] | 146.259% |
| CCN1C(=O)CC2(C1=O)C(=O)N(CCCOc1ccccc1OC)c1ccccc12 (centres unmarked) [CBK075498] | 104.161% |
| CC1CCN(S(=O)(=O)c2cccc(S(=O)(=O)c3cccc(S(=O)(=O)N4CCC(C)CC4)c3)c2)CC1 [CBK261731] | 118.852% |
| O=[N+]([O-])c1cc(-c2nc(-c3ccco3)c(-c3ccco3)[nH]2)ccc1Br [CBK019778] | 100% |
| CN1CCC2(CC1)CN(C(=O)C1CC1)Cc1ccccc1O2 [CBK284967] | 104.218% |
| c1cnc2[nH]c([C@H]3CCCO3)c(CN3CCCCC3)c2c1 [CBK282284] | 130.91% |
| Cc1nc2c(c(=O)[nH]1)CN(Cc1ccc(Cl)cc1)CC2 [CBK282415] | 134.619% |
| CC(C)(C)c1cc(C(=O)NCCN)n(Cc2ccc(Cl)cc2Cl)n1 [CBK116631T] | 51.3918% |
| CC(C)c1ccc(/C=C/C(=O)NCc2ccc(NS(C)(=O)=O)cc2)cc1 [CBK161512] | 44.2788% |
| CN1CCN(c2nccnc2-c2ccccc2)CC1 [CBK088825] | 111.331% |

| SMILES | % of control remaining |
| --- | --- |
| O=c1[nH]c2ncc(-c3ccc(OC(F)(F)F)cc3)nc2n1Cc1ccc(Cl)cc1 [CBK064409] | 149.363% |
| O=C(O)c1cccc(Cn2ccc3c(F)cccc32)c1 [CBK003453] | 169.339% |
| FC(F)(F)Oc1ccccc1-c1nnc(NC2CCCCCC2)s1 [CBK074041] | 121.652% |
| CCCCCn1c(=O)c(-c2nc3ccccc3c(=O)[nH]2)c(O)c2ccccc21 [CBK291215] | 95.9531% |
| O=C(CSc1nnc(-c2ccncc2)n1-c1ccc(Cl)cc1)Nc1ccccc1-c1ccccc1 [CBK266205] | 156.265% |
| CCOC(=O)c1cnc2ccccc2c1NCCN1CCOCC1 [CBK304328] | 126.515% |
| Cc1ccn2cc(-c3ccc4c(c3)CCN4S(C)(=O)=O)cc2c1 [CBK285252] | 148.954% |
| O=C(NCc1ccccn1)c1cc(-c2ccc(Cl)cc2)[nH]n1 [CBK116549] | 89.266% |
| O=C(c1ccc(F)cc1)N1CCN(c2ccc(Nc3ccncc3)nn2)CC1 [CBK287836] | 107.86% |
| O=S1(=O)CCC(c2nnc(C3(c4ccc(Br)cc4)CCOCC3)o2)C1 (centres unmarked) [CBK305513] | 100.049% |
| NS(=O)(=O)c1ccc(NC(=O)/C=C/c2cccc([N+](=O)[O-])c2)cc1 [CBK261616] | 109.293% |
| CCCN1CCN(C(=O)c2cnc(C)cn2)C(Cc2cccc(-c3cccs3)c2)C1=O (centres unmarked) [CBK285678] | 142.728% |
| c1ccc2c(-c3ccc(OC4CCNCC4)cc3)cncc2c1 [CBK126578] | 86.9379% |
| N#C/C(=C\c1ccc(-c2ccc(S(N)(=O)=O)cc2)o1)c1nc2ncc(Br)cc2[nH]1 [CBK266288] | 100% |
| COc1ccc(C(=O)NC(=S)Nc2ccc(O)c(-c3nc4cc(C)c(C)cc4o3)c2)cc1[N+](=O)[O-] [CBK264039] | 97.4319% |
| Cc1cc(C=O)c(O)c(/C=N/CC/N=C/c2cc(C)cc(C=O)c2O)c1 [CBK262149] | 114.733% |
| O=C(CO)N1CC2(CCN(Cc3ccc4ccccc4c3)CC2)c2ccccc21 [CBK131501] | 94.7419% |
| COCCCN(Cc1ccc(F)c(F)c1)Cc1ccccn1 [CBK282961] | 127.279% |
| COCCn1c(CN2Cc3ccc(Cl)cc3C2=O)nnc1[C@H]1C[C@@H](N)C1 [CBK307289] | 104.827% |
| Oc1cccc2ccc(/C=N/N=C/c3ccc4cccc(O)c4n3)nc12 [CBK261127] | 100% |
| Cc1ccc(CNC(=O)Cn2nnc(-c3ccc(CNCC(F)(F)F)cc3)n2)cc1 [CBK153204T] | 108.408% |
| O=c1[nH]nc2ccc(S(=O)(=O)N3CCCCC3)cn12 [CBK288459] | 150.083% |
| CC(C)CCNC(=O)N1CCC(C(=O)O)CC1 [CBK156075] | 119.948% |
| Nn1cnn2c(SCc3ccccc3)nnc12 [CBK263188] | 94.8324% |
| Cc1c(C(=O)N2CCC(F)(CO)C2)nnn1-c1ccc2ncccc2c1 (centres unmarked) [CBK304483] | 116.988% |

Some of these compounds in order of SMILES length, ascending.

| SMILES | % of control remaining |
| --- | --- |
| CC(C)CCNC(=O)N1CCC(C(=O)O)CC1 [CBK156075] | 119.948% |
| O=C(CO)N1CC2(CCN(Cc3ccc4ccccc4c3)CC2)c2ccccc21 [CBK131501] | 94.7419% |
| COCCn1c(CN2Cc3ccc(Cl)cc3C2=O)nnc1[C@H]1C[C@@H](N)C1 [CBK307289] | 104.827% |
